Data as given in PubChem BioAssay AID602196 (INSERM, 2012).

Purpose: 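Genes whose knock-down alters cisplatin killing of lung cancer cells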
Cells: human A549 lung cancer cells
Reagent: siRNA pair against human genes
Timing: 48 h transfection before cisplatin; time from cisplatin to read-out not stated
Challenge: cisplatin at a dose killing half of control-siRNA cells; exact dose and duration not given
Measurement: 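Cisplatin cell death as a shift from the 50% death seen with control siRNA; siRNAs toxic or growth-blocking alone scored 0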
Direction: two-siRNA summed score (-2 to +2): higher = both siRNAs protect from cisplatin killing; -2 means both sensitise; mean protection from cisplatin (shift in death): higher = protection from cisplatin killing
Hit rule: 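Each siRNA scores 0 if harmful alone by LDH or WST-1, otherwise +1 if it reduces and -1 if it increases cisplatin killing; a gene is active when both siRNAs agree (sum +2 or -2)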
Calls: active = both siRNAs shift cisplatin killing the same way; inactive = no consistent shift, or siRNA harmful alone
Here is an unselected part of about 23,000 reagents. 455 of them (2%) count as active. 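Active includes both protection and sensitisation; some change values fall well beyond the stated -50 to +50 range.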 Unmarked entries are inactive. Further read-outs or replicates are left out here. Not given: the amount of reagent.

| gene symbol | two-siRNA summed score (-2 to +2) | mean protection from cisplatin (shift in death) (%) |
| --- | --- | --- |
| CWC25 (CWC25 spliceosome associated protein) | 0 | -4.4 |
| LOC388508 | 0 | 12.5 |
| MYBPC2 (myosin binding protein C2) | 0 | 12 |
| C1GALT1 | 1 | 11.3 |
| LOC342918 | 0 | 10.7 |
| COL11A1 (collagen type XI alpha 1 chain) | 0 | 0 |
| SEMA5B (semaphorin 5B) | 1 | 12.3 |
| ESCO1 | 0 | -0.8 |
| TXLNB (taxilin beta) | 0 | 9 |
| KLHDC9 (kelch domain containing 9) | 1 | 25.4 |
| WDR59 (WD repeat domain 59) | 0 | 4.8 |
| AQP4 (aquaporin 4) | 0 | -11.3 |
| PRELID1 (PRELI domain containing 1) | 0 | 23.9 |
| LOC390927 | 0 | 3.8 |
| LOC441789 | 0 | 9 |
| OR8D2 (olfactory receptor family 8 subfamily D member 2) | -1 | -5.8 |
| OR4N2 (olfactory receptor family 4 subfamily N member 2) | 0 | 25.7 |
| RBM34 (RNA binding motif protein 34) | 0 | 5.2 |
| OVCH2 (ovochymase 2) | 1 | 8.9 |
| KIAA0565 | 1 | 11 |
| OLIG1 (oligodendrocyte transcription factor 1) | 0 | 11.7 |
| TECR (trans-2,3-enoyl-CoA reductase) | 0 | -0.9 |
| GLO1 (glyoxalase I) | -1 | -8.8 |
| GNPAT (glyceronephosphate O-acyltransferase) | 0 | -2.5 |

The list goes on, starting with the last 4 of the part before.
| gene symbol | two-siRNA summed score (-2 to +2) | mean protection from cisplatin (shift in death) (%) |
| --- | --- | --- |
| OLIG1 (oligodendrocyte transcription factor 1) | 0 | 11.7 |
| TECR (trans-2,3-enoyl-CoA reductase) | 0 | -0.9 |
| GLO1 (glyoxalase I) | -1 | -8.8 |
| GNPAT (glyceronephosphate O-acyltransferase) | 0 | -2.5 |
| PLPP5 (phospholipid phosphatase 5) | 0 | -5.2 |
| IGF2BP1 (insulin like growth factor 2 mRNA binding protein 1) | 1 | 10 |
| MARCHF1 (membrane associated ring-CH-type finger 1) | -1 | -14.4 |
| UBE2Q2P1 (UBE2Q2 pseudogene 1) | 0 | 2.1 |
| LOC400004 | 0 | 6.2 |
| PARP3 (poly(ADP-ribose) polymerase family member 3) | -1 | -0.2 |
| NCKAP1L (NCK associated protein 1 like) | 0 | 22.5 |
| ARF1 (ARF GTPase 1) | 0 | 0.4 |
| ADRA2B (adrenoceptor alpha 2B) | 1 | 7.8 |
| BIVM (basic, immunoglobulin-like variable motif containing) | -1 | -9.2 |
| RIOX1 (ribosomal oxygenase 1) | 1 | 19.1 |
| ZBTB18 (zinc finger and BTB domain containing 18) | 0 | -10.3 |
| RHBG (Rh family B glycoprotein) | 1 | 8.7 |
| RIMKLA (ribosomal modification protein rimK like family member A) | 0 | -4.6 |
| ZFYVE16 (zinc finger FYVE-type containing 16) | 0 | -3 |
| DAOA (D-amino acid oxidase activator) | 0 | 5.5 |
| LOC441888 | 0 | 2.5 |
| NCKAP1 (NCK associated protein 1) | -1 | -29.5 |
| OR5K2 (olfactory receptor family 5 subfamily K member 2) | 1 | 15.9 |
| LOC389159 | 1 | 8.5 |
| KRT27 (keratin 27) | 1 | 22.7 |
| PIK3R2 (phosphoinositide-3-kinase regulatory subunit 2) | 0 | 22 |
| TMEM71 (transmembrane protein 71) | 0 | -10.4 |
| FEN1 (flap structure-specific endonuclease 1) | -1 | -0.3 |
| EPHB1 (EPH receptor B1) | 0 | -0.6 |
| SERPINB2 (serpin family B member 2) | 0 | -0.5 |
| PACRGL (parkin coregulated like) | 0 | 3.3 |
| MPP3 (MAGUK p55 scaffold protein 3) | -1 | -20.2 |
| CARS2 (cysteinyl-tRNA synthetase 2, mitochondrial) | 1 | 15.8 |
| SPECC1L | 0 | 1.6 |
| CNOT10 (CCR4-NOT transcription complex subunit 10) | -1 | -2 |
| GGN (gametogenetin) | 0 | 16.3 |
| SRPX2 (sushi repeat containing protein X-linked 2) | 0 | 4.8 |
